Patent US20020119917A1, “ANTI-INFLAMMATORY PEPTIDES DERIVED FROM C-REACTIVE PROTEIN” (priority 1996, published 2002)
Part of at least one peptide drawing is inferred or uncertain, most often the ends. Non-standard residues stand in square brackets, D forms with d. Residues, ends and D or L forms follow the SMILES beside them. Dab = NCC[C@H](N)C(=O)O

Molecular target: T1, human leukocyte elastase (hLE) (Homo sapiens, UniProt P08246)
T1 construct: Neutrophils (1.4 billion) were isolated from whole blood obtained from a single healthy laboratory donor; from tissue; host or cells: neutrophils from whole blood of a single healthy donor
T1 sequence (P08246 30-247 limits assumed): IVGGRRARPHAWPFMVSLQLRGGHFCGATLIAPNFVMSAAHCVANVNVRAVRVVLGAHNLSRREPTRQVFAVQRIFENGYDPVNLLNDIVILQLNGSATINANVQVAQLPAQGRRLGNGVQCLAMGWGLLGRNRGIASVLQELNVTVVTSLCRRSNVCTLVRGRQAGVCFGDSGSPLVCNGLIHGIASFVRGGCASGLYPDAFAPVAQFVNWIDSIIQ
Test: In-vitro inhibition of hLE (cleavage of MeOSuc-AAPV-NA)
Format: biochemical
Settings: substrate MeOSuc-AAPV-NA, 100 mM Hepes pH 7.4, 37° C.
Protocol: The enzymatic activity was assayed with MeOSuc-AAPV-NA for hLE determination and Suc-AAPF-NA for hCG determination (both in 100 mM Hepes buffer, pH 7.4, containing 0.05% of the […] detergent Brij-35). The activities of the individual enzymatic fractions were 100% free from cross-contamination. […] The fractions containing hLE and hCG were dialyzed each against 0.1% pyridinium acetate, pH 5.3, divided into 20 aliquots, lyophilized, and stored at −20° C. until use.
Peptides were dissolved in 100 mM Hepes buffer pH 7.4 containing 0.1% Brij-35 with 10% DMSO to yield 600 μM solutions, which were used to make further dilutions with the same buffer, and 80 μL aliquots were added in duplicates to 96-well plates. The substrate, 600 or 900 μM MeOSuc-AAPV-NA in the same buffer with 5% DMSO, was added to each well in addition to the blank wells, and the plate was placed in the plate reader equilibrated to 37° C. (Dynateck MR-6000). […]
For hLE, V is determined by fitting a linear equation to the first 6 time-points (10 min) of the kinetics data using the least squares method. […]
The hLE inhibitory capability of CRP-derived peptides was evaluated by inhibiting the enzymatic cleavage of MeOSuc-AAPV-NA as described in Materials and Methods (section v).

`CC[C@H](C)[C@H](NC(=O)[C@H](CCN)NC(=O)[C@@H](NC(=O)[C@@H]1CCCN1C(=O)[C@H](C)NC(=O)[C@@H](NC(=O)[C@@H](NC(=O)[C@@H](N)C(C)C)[C@@H](C)O)C(C)C)C(C)C)C(=O)O` [Peptide 29, Val89-Thr-Val-Ala-Pro-Val-DAB-Ile96] (H-VTVAPV[Dab]I-OH; N-terminus and C-terminus assumed) was tested, and the Ki was 500 ± 170 µM.
